Results taken from PMC7808939.

What was measured:
[1] = target: T1, tagged wild type cyclin D3 (NIH3T3, mass spectrometry bait) (UniProt P30282); test: affinity purification with mass spectrometry; tagged wild type cyclin D3 or cyclin D3T283A expressed in NIH3T3 fibroblasts; co-purifying proteins identified by mass spectrometry
T1 sequence: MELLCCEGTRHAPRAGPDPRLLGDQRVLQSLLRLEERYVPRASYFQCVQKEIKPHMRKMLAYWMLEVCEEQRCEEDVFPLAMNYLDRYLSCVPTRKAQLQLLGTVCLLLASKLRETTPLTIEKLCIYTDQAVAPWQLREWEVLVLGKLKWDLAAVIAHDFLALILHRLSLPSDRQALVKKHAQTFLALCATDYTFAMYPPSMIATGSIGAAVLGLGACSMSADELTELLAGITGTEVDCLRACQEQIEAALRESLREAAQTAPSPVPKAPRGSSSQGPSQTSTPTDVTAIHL

[2] = target: T2, tagged cyclin D3T283A (NIH3T3, mass spectrometry bait) (UniProt P30282); test: as above
T2 sequence: T1 sequence with T283A

B1: endogenous Fbxl8 (NIH3T3 cells) (protein, UniProt Q8CIG9 1-374)
chain: MGELVDNLPEEVLALIFRDLPLRDLAVATRVCRAWAAAAANSTVWSDKSISCDCELEDLLPPYLSSCLDHIHNLRLEYEPSKKPSRGTATELLTALASRAPRLRGLRLECRGEKPLFDAGQDILGAVHAVCGAAHQLRHLDLRHLPYTLDDTLVLKAAAGCPELRSLFLDNHALVNSVQPTSVLKLLEACPHLRALGLHLASMSRAALELLAAPHRSPFALLALRCACPEDARASPLPDEAWATLSCRHPGLEVELELEPVLPDEAVTRILQPAVPVAVLRLNLSGDTVGPVRFATRHYAETLRALEVRASASPELHTALEELAARCAGLREIHCFCVVRPSVLDAFRAHCPRLRSYTLKLKREPHPWRPTLVR
binding [1]: binds
binding [2]: no binding

Residue numbers refer to the chain shown, from its start. No constants are given. Whether binding was seen depends on the method and setting. Binding seen in cells or lysates may run through a third protein. Here binding means that the protein was enriched with, or labelled near, the bait; the list need not be complete. For some assays here: No binding means not detected with the bait. Where a sequence is shown, tags or fusion partners need not be part of it.
